From the supplement of paper PMC4604168 (melanoma cell lines)
The list shows a part of the results. Single values are uncertain, as repeats are few or missing.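 Imaging used 1,536-well plates; nuclei positive for cleaved PARP by antibody were divided by total DNA-stained nuclei to yield the apoptosis fraction. Doses for screening kept most cells viable, and cell lines differ markedly in resting and induced cleaved-PARP levels.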

These compounds were tested on CBRC016 (line from a melanoma biopsy) (assay: cleaved PARP positive nuclei fraction relative to DMSO control; melanoma cells; higher = more apoptosis). Details: library dose: low library concentration; 72 h.

Compared with `CCCCCCCCCCCCCCCCCCOP(=O)([O-])OC1CC[N+](C)(C)CC1` [Perifosine] + NCC(=O)Nc1ccc(-n2nc(C(F)(F)F)cc2-c2ccc3c(ccc4ccccc43)c2)cc1 [OSU03012] (first compound 0.4 µM, partner dose 1 µM), `O=C(/C=C/c1cccnc1)NCCCCC1CCN(C(=O)c2ccccc2)CC1` + Cc1cc(N2CCOCC2)cc2[nH]c(-c3c(NC[C@@H](O)c4cccc(Cl)c4)cc[nH]c3=O)nc12 [BMS536924] (first compound 0.01 µM, partner dose 0.2 µM) is higher in “cleaved PARP positive nuclei fraction” value: 113% for the first, 339% for the second.

Compared with `CCCCCCCCCCCCCCCCCCOP(=O)([O-])OC1CC[N+](C)(C)CC1` [Perifosine] + O=C(Nc1cccc(Cl)c1)Nc1ncc(CCNc2ncnc3ccsc23)s1 [SNS314] (first compound 0.4 µM, partner dose 0.0008 µM), `O=C(/C=C/c1cccnc1)NCCCCC1CCN(C(=O)c2ccccc2)CC1` + CO[C@@H]1[C@H](N(C)C(=O)c2ccccc2)C[C@H]2O[C@]1(C)n1c3ccccc3c3c4c(c5c6ccccc6n2c5c31)C(=O)NC4 [Midostaurin] (first compound 0.01 µM, partner dose 0.08 µM) is higher in “cleaved PARP positive nuclei fraction” value: 196% for the first, 825% for the second.

Compared with `COc1cc([C@@H]2c3cc4c(cc3[C@@H](O[C@@H]3O[C@@H]5CO[C@@H](C)O[C@H]5[C@H](O)[C@H]3O)[C@H]3COC(=O)[C@H]23)OCO4)cc(OC)c1O` [etoposide] + OCCn1cc(-c2cnc3nnn(Cc4ccc5ncccc5c4)c3n2)cn1 [PF04217903] (first compound 0.02 µM, partner dose 1 µM), `O=c1[nH]nc(Sc2ncc([N+](=O)[O-])s2)n1-c1ccc2c(c1)OCCO2` + O=C(CCCCCCC(=O)Nc1ccccc1)NO [vorinostat] (first compound 0.2 µM, partner dose 0.08 µM) is lower in “cleaved PARP positive nuclei fraction” value: 129% for the first, 110% for the second.

Compared with `COc1cc([C@@H]2c3cc4c(cc3[C@@H](O[C@@H]3O[C@@H]5CO[C@@H](C)O[C@H]5[C@H](O)[C@H]3O)[C@H]3COC(=O)[C@H]23)OCO4)cc(OC)c1O` [etoposide] + Cc1cc(N2CCOCC2)cc2[nH]c(-c3c(NC[C@@H](O)c4cccc(Cl)c4)cc[nH]c3=O)nc12 [BMS536924] (first compound 0.02 µM, partner dose 0.2 µM), `Cc1ccc(Nc2nccc(N(C)c3ccc4c(C)n(C)nc4c3)n2)cc1S(N)(=O)=O` [Pazopanib] + CO[C@@H]1[C@H](N(C)C(=O)c2ccccc2)C[C@H]2O[C@]1(C)n1c3ccccc3c3c4c(c5c6ccccc6n2c5c31)C(=O)NC4 [Midostaurin] (first compound 0.4 µM, partner dose 0.08 µM) is higher in “cleaved PARP positive nuclei fraction” value: 49.5% for the first, 94.9% for the second.

First: N#CC[C@H](C1CCCC1)n1cc(-c2ncnc3[nH]ccc23)cn1 [ruxolitinib] + Cc1cc(N2CCOCC2)cc2[nH]c(-c3c(NC[C@@H](O)c4cccc(Cl)c4)cc[nH]c3=O)nc12 [BMS536924] (first compound 1 µM, partner dose 0.2 µM)
Second: CCCCCCCCCCCCCCCCCCOP(=O)([O-])OC1CC[N+](C)(C)CC1 [Perifosine] + NC(=O)Nc1cc(-c2cccc(F)c2)sc1C(=O)N[C@H]1CCCNC1 [AZD7762] (first compound 0.4 µM, partner dose 0.02 µM)
The “cleaved PARP positive nuclei fraction” value of the first is lower: 94.9% for the first, 117% for the second.

For `COc1cc([C@@H]2c3cc4c(cc3[C@@H](O[C@@H]3O[C@@H]5CO[C@@H](C)O[C@H]5[C@H](O)[C@H]3O)[C@H]3COC(=O)[C@H]23)OCO4)cc(OC)c1O` [etoposide] + CO[C@@H]1[C@H](N(C)C(=O)c2ccccc2)C[C@H]2O[C@]1(C)n1c3ccccc3c3c4c(c5c6ccccc6n2c5c31)C(=O)NC4 [Midostaurin] (first compound 0.02 µM, partner dose 0.08 µM), the “cleaved PARP positive nuclei fraction” value was 51.4%.
In the case of `COc1cc([C@@H]2c3cc4c(cc3[C@@H](O[C@@H]3O[C@@H]5CO[C@@H](C)O[C@H]5[C@H](O)[C@H]3O)[C@H]3COC(=O)[C@H]23)OCO4)cc(OC)c1O` [etoposide] + O=C(Nc1cccc(Cl)c1)Nc1ncc(CCNc2ncnc3ccsc23)s1 [SNS314] (first compound 0.02 µM, partner dose 0.0008 µM), the “cleaved PARP positive nuclei fraction” value is reported as 154%.
